This note sets out measurements from US20210332024A1, “MODULATORS OF PIN1 ACTIVITY AND USES THEREOF” (Yeda Research and Development Co. Ltd., priority 2019, published 2021).

Chains of the proteins cited; added tags and fusions are not shown.
UniProt Q13526, whole entry: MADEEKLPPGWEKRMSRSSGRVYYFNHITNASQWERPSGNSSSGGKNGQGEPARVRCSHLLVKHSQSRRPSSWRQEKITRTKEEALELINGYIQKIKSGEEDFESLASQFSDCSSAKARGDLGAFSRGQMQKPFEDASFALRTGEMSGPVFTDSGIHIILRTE

Not every entry of the source has a single result; some have several. The other results are left out here. An entry can have further records. Results that share an entry differ, and nothing given here explains why; they may come from other doses, times, organisms or constructs than stated.

In this test the target is GST-Pin1 (Homo sapiens, UniProt Q13526). The test can be described thus: Fluorescence polarization (FP) competition assay. Particulars: read-out: Ki (apparent), competition with fluorescein-labeled peptide, 250 nM GST-Pin1. Here is the method: Binding affinity to Pin1 was determined using a fluorescence polarization assay to assess competition with an N-terminal fluorescein-labeled peptide (Bth-D-phosThr-Pip-Nal), which was obtained from JPT Peptide Technologies and Proteintech Group. The indicated concentrations of candidate compound were pre-incubated for 12 hours at 4° C. with a solution containing 250 nM glutathione S-transferase (GST)-Pin1, 5 nM of fluorescein-labeled peptide probe, 10 μg/ml bovine serum albumin, 0.01% Tween-20 and 1 mM DTT (dithiothreitol) in a buffer of 10 mM HEPES, 10 mM NaCl and 1% glycerol (pH 7.4). Measurements of FP were performed in black 384-well plates (Corning) using an EnVision™ reader. Apparent Ki values (under the tested conditions) obtained from the FP assay results were derived from the Kenakin Ki equation:
Kenakin Ki=(Lb)(EC50)(Kd)/(Lo)(Ro)+Lb(Ro−Lo+Lb−Kd) […]
Covalent labeling of Pin1 was confirmed to translate into enzyme inhibition via a fluorescence polarization (FP) competition assay using a FITC-labeled substrate mimetic peptide inhibitor, as well as a chymotrypsin-coupled PPIase assay, using procedures described in Wei et al. [Nat Med 2015, 21:457-466]. […]
(In general: Fluorescence polarisation rises when a labelled molecule tumbles more slowly, as on binding a larger partner.)

In the case of `O=C(CCl)N(Cc1cccs1)C1CCS(=O)(=O)C1` (stereo not shown) [Pin1-433], the Ki was 40 nM and 194 nM.
